PubChem BioAssay AID602196 | INSERM, 2012
Purpose: 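Genes whose knock-down alters cisplatin killing of lung cancer cells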. Cells: human A549 lung cancer cells. Knock-down reagent: siRNA pair against human genes. Time to read-out: 48 h transfection before cisplatin; time from cisplatin to read-out not stated. Challenge: cisplatin at a dose killing half of control-siRNA cells; exact dose and duration not given. Read-out: 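Cisplatin cell death as a shift from the 50% death seen with control siRNA; siRNAs toxic or growth-blocking alone scored 0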. Reading the numbers: two-siRNA summed score (-2 to +2): higher = both siRNAs protect from cisplatin killing; -2 means both sensitise; mean protection from cisplatin (shift in death) and protection from cisplatin (shift in death), siRNA C and protection from cisplatin (shift in death), siRNA D: higher = protection from cisplatin killing. Rule for the call: 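siRNAs harmful alone (LDH or WST-1) get 0; others get +1 for less and -1 for more cisplatin killing; genes are active when the two siRNAs give the same sign, summing to ±2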. Meaning of the calls: active = both siRNAs shift cisplatin killing the same way; inactive = no consistent shift, or siRNA harmful alone.
The deposit covers about 23,000 reagents; shown is a random part of them. Over the whole deposit, 455 (2%) were called active. 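Active includes both protection and sensitisation; some change values fall well beyond the stated -50 to +50 range.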 Reagents against one gene are numbered here. Not stated in the record: the amount of reagent.

gene,reagent no.,two-siRNA summed score (-2 to +2),mean protection from cisplatin (shift in death) (%),"protection from cisplatin (shift in death), siRNA C (%)","protection from cisplatin (shift in death), siRNA D (%)",Call
MAEL (GeneID 84944),1,0,7.3,2.2,12.5,inactive
ZNF765 (GeneID 91661),1,-1,-1.4,10,-12.8,inactive
SETD2 (GeneID 29072),1,0,4.7,6,3.4,inactive
NTF4 (GeneID 4909),1,0,5.9,10.1,1.8,inactive
CELA3B (GeneID 23436),1,0,-1,-14,12,inactive
SNAI1 (GeneID 6615),1,0,-4,14.2,-22.2,inactive
EHMT1 (GeneID 79813),1,1,15.3,9.9,20.6,inactive
CPD (GeneID 1362),1,-1,-8.5,11.8,-28.7,inactive
SOX4 (GeneID 6659),1,0,-4.9,-3.9,-5.9,inactive
CHD7 (GeneID 55636),1,0,1.3,-4.9,7.5,inactive
ZNF660 (GeneID 285349),1,1,17.5,7.4,27.6,inactive
ASRGL1 (GeneID 80150),1,-2,-25,-20.9,-29.1,active
PNMT (GeneID 5409),1,-1,-27.1,-48.1,-6.1,inactive
R3HDM4 (GeneID 91300),1,1,14.3,24.3,4.3,inactive
FAM218A (GeneID 152756),1,0,-0.8,-11.1,9.6,inactive
HIVEP2 (GeneID 3097),1,0,10.7,18.7,2.7,inactive
OR4D10 (GeneID 390197),1,1,14.6,20.2,9.1,inactive
MAPK8IP3 (GeneID 23162),1,0,-2.7,-10.2,4.8,inactive
FLJ37183,1,1,10.2,13.9,6.6,inactive
ZNF628 (GeneID 89887),1,0,3.3,-6.4,12.9,inactive
LIF (GeneID 3976),1,0,5.8,7,4.5,inactive
DRC3 (GeneID 83450),1,0,2.3,9,-4.3,inactive
LOC162993,1,0,6.8,5.3,8.3,inactive
BEST3 (GeneID 144453),1,0,-5.5,7.6,-18.6,inactive
BEST3 (GeneID 144453),2,0,3.1,5.6,0.7,inactive
LOC440365,1,-1,-11.2,-2.6,-19.9,inactive
ZNF546 (GeneID 339327),1,0,2.2,12.6,-8.3,inactive
IFT57 (GeneID 55081),1,-1,-13.6,-32.5,5.4,inactive
NOS1 (GeneID 4842),1,0,7.4,5.7,9,inactive
DEDD (GeneID 9191),1,0,0.3,-13.3,14,inactive
FAM162A (GeneID 26355),1,0,-4.9,-8.1,-1.6,inactive
LINC01124 (GeneID 440925),1,0,8.2,8.8,7.6,inactive
C19orf12 (GeneID 83636),1,0,-5.3,-3.7,-6.8,inactive
TREX1 (GeneID 11277),1,0,-2.6,-14.1,9,inactive
USP51 (GeneID 158880),1,-1,-13.8,7.8,-35.3,inactive
TBC1D3B (GeneID 414059),1,0,4.6,0,9.2,inactive
PPIB (GeneID 5479),1,0,-2.2,-4.6,0.1,inactive
PSPH (GeneID 5723),1,0,4.4,17.8,-9,inactive
MCEMP1 (GeneID 199675),1,0,-11,-17.8,-4.3,inactive

A stretch taken from the entries so far:
gene,reagent no.,two-siRNA summed score (-2 to +2),mean protection from cisplatin (shift in death) (%),"protection from cisplatin (shift in death), siRNA C (%)","protection from cisplatin (shift in death), siRNA D (%)",Call
ZNF628 (GeneID 89887),1,0,3.3,-6.4,12.9,inactive
LIF (GeneID 3976),1,0,5.8,7,4.5,inactive
DRC3 (GeneID 83450),1,0,2.3,9,-4.3,inactive
